Data from PubChem BioAssay AID445 (National Center for Advancing Translational Sciences (NCATS), 2006).
The other results are listed elsewhere or left out. These are further read-outs of the screen, such as a control signal, another cell line or another target. No call is given for them. The list favours compounds with an active or inconclusive main result. Words in brackets tell the shape of the fitted curve; partial curves, single points and poor fits give uncertain potencies.

Assay: IkB Signaling
Conditions: ABC-DLBCL IkBa-CBG/CBR dual luciferase ratio (green luciferase fused to IkBa over red control in OCI-Ly3 lymphoma cells), 4 h
Summary of the method: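 Curves were fitted separately to fusion (green), unfused (red) and ratio luminescence, then classed by r2, magnitude and activity. Cells: OCI-Ly3, 4 h compound plus doxycycline at 37C; 10 uM MG-132 defined full response.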

[1] = measured here: control luc red channel unless noted

CCc1ccc(S(=O)(=O)c2nnn3c2nc(N2CCCC(C)C2)c2cc(Cl)ccc23)cc1 (configuration not stated)
AC50 [1]: 0.2 µM [falling, full curve]

COc1ccc(Br)cc1CNC(=O)c1ccc2c(c1)nc1n2CCCCC1
AC50 [1]: 20 µM [falling, partial curve]

Cc1noc(C)c1-c1ccc2ncnc(NCc3ccccc3)c2c1
AC50 [1]: 631 nM [rising, full curve] [measured here: IkB-luc green channel]

Cc1cccc(CN2C(=O)c3ccccc3S(=O)(=O)c3ccc(C(=O)N4CCN(c5cc(C)ccc5C)CC4)cc32)c1
AC50 [1]: 25.1 µM [falling, single point]

CCc1ccc(-c2cc3c(N4CCN(c5ccccc5)CC4)nccn3n2)cc1
AC50 [1]: 12.6 µM [falling, single point]

COc1cccc(C(=O)n2nc(-c3ccco3)nc2NCc2cccs2)c1
AC50 [1]: 39.8 µM [falling, single point]

Cc1cccc(-c2nc3nc(C)cc(N4CCN(c5ccccc5)CC4)n3n2)c1
AC50 [1]: 5.01 µM [rising, single point]

COC(=O)c1ccccc1NC(=O)COc1ccccc1
AC50 [1]: 10 µM [falling, partial curve]

COc1ccc(NS(=O)(=O)c2ccc(NS(=O)(=O)c3ccc4c(c3)OCCO4)cc2)cc1
AC50 [1]: 25.1 µM [falling, partial curve]

COc1cccc(N2CCN(Cc3nnc(-c4ccc5c(c4)OCO5)o3)CC2)c1
AC50 [1]: 20 µM [falling, single point]

COc1ccc(NC(=O)N2CCN(c3cc(-c4noc(C)n4)ccc3C)CC2)c(OC)c1
AC50 [1]: 2.51 µM [rising, partial curve]

Cc1c(C(=O)NCc2ccccc2Cl)sc2nc3n(c(=O)c12)CCC3
AC50 [1]: 2 µM [rising, full curve]

Cc1cc(C)cc(N2CCn3c2nc2c3c(=O)n(CCc3ccccc3)c(=O)n2C)c1
AC50 [1]: 15.8 µM [falling, partial curve]

Cc1cccc(N2CCN(c3ccc(C(=O)O)cc3NC(=O)c3ccccc3F)CC2C)c1 (configuration not stated)
AC50 [1]: 20 µM [falling, partial curve]

Cn1c(=O)n(CCc2ccccc2)c(=O)c2c1nc1n2CCN1c1ccc(Cl)cc1
AC50 [1]: 12.6 µM [falling, partial curve]

Cc1ccc2nc(NC(=O)c3cccs3)sc2c1
AC50 [1]: 2 µM [falling, full curve]

CC(C(=O)Nc1ccccc1C(F)(F)F)n1nc(-c2ccccc2)c2c(c1=O)CCCC2 (configuration not stated)
AC50 [1]: 15.8 µM [falling, partial curve]

COc1ccc(CC(=O)Nc2cccc(-c3nnc(-c4ccccc4)o3)c2)cc1OC
AC50 [1]: 3.16 µM [falling, full curve]

CC(C)CC(=O)Nc1c(C(=O)N2CCN(c3ccccc3F)CC2)oc2ccccc12
AC50 [1]: 10 µM [falling, partial curve]

Cc1nc2ccccc2n1CCc1nc2c3ccccc3nc(SCC(=O)Nc3ccc(C(C)C)cc3)n2n1
AC50 [1]: 3.16 µM [rising, partial curve]

COc1ccc(NC(=O)c2ccco2)cc1NC(=O)COc1ccc(C)cc1C
AC50 [1]: 0.631 µM [rising, full curve]

Clc1ccc(CSc2nc3ncccc3[nH]2)cc1
AC50 [1]: 1 µM [rising, full curve]

CCC(=O)N1CCc2cc(OC)c(OC)cc2C1COc1ccc(C(=O)OC)cc1 (configuration not stated)
AC50 [1]: 39.8 µM [falling, single point]

Cc1nn(Cc2ccccc2)c(C)c1C(=O)OCC(=O)c1cc(C)n(C2CC2)c1C
AC50 [1]: 12.6 µM [falling, partial curve]

CCCc1ccc(NC(=O)C2CCN(c3cnccn3)CC2)cc1
AC50 [1]: 15.8 µM [falling, partial curve]

Cc1ccc(NC(=O)Cc2ccc(NC(=O)N3CCCCc4ccccc43)cc2)cc1
AC50 [1]: 25.1 µM [falling, single point]

CSc1cccc(NC(=O)Cn2nnc(C(=O)NCCc3ccccc3)c2N)c1
AC50 [1]: 12.6 µM [falling, partial curve]

O=C1c2[nH]nc(-c3ccccc3O)c2C(c2ccc(F)cc2)N1Cc1ccco1 (configuration not stated)
AC50 [1]: 25.1 µM [falling, partial curve]

O=C(Cn1cc(C(=O)c2ccco2)c2ccccc21)Nc1ccc(Br)cc1
AC50 [1]: 15.8 µM [falling, partial curve]

c1ccc2oc(SCc3nc4ccccc4s3)nc2c1
AC50 [1]: 20 µM [falling, partial curve]

CCOC(=O)c1cnn(-c2ccc(C(=O)Nc3cc(OC)c(OC)c(OC)c3)cc2)c1N
AC50 [1]: 0.794 µM [falling, partial curve]

O=C(CSc1ccccc1)N1CCc2c([nH]c3ccccc23)C1c1ccc(F)cc1 (configuration not stated)
AC50 [1]: 15.8 µM [falling, partial curve]

CC1CCN(S(=O)(=O)c2cn(CC(=O)Nc3cccc(C(F)(F)F)c3)c(=O)c3ccccc23)CC1
AC50 [1]: 2.51 µM [falling, full curve]

COc1cccc(C(=O)Nc2cccc(C(=O)OCc3cc(=O)n4nc(C5CC5)sc4n3)c2)c1
AC50 [1]: 0.794 µM [falling, full curve]

CCn1c(C(=O)NCCc2ccc(OC)c(OC)c2)cc2sc(Cl)cc21
AC50 [1]: 39.8 µM [falling, single point]

O=C(c1ccccc1)N1CCN(c2ccc(NCc3ccc4c(c3)OCO4)cc2)CC1
AC50 [1]: 15.8 µM [falling, partial curve]

COc1cccc(NC(=O)c2ccc3nc(CCc4ccccc4)oc3c2)c1
AC50 [1]: 3.98 µM [falling, full curve]

CCCCNc1nc(Oc2ccc(OCC)nn2)nc(N2CCOCC2)n1
AC50 [1]: 20 µM [falling, single point]

COc1ccc(Cl)cc1NC(=O)c1c(NCc2ccc(C)o2)sc2c1CCCCC2
AC50 [1]: 25.1 µM [falling, partial curve]

Cc1ccc(S(=O)(=O)C(C#N)c2nc3ccccc3nc2OC(C)C)cc1 (configuration not stated)
AC50 [1]: 12.6 µM [falling, partial curve]

CCCCOc1ccc(-c2nn(-c3ccccc3)cc2C2NC(=O)NC(C)=C2C(=O)OC)cc1 (configuration not stated)
AC50 [1]: 25.1 µM [falling, single point]

O=C(C1CC1)N1CCc2cc(Br)cc(S(=O)(=O)N3CCN(c4cccc(C(F)(F)F)c4)CC3)c21
AC50 [1]: 39.8 µM [rising, single point]

CCCCc1n[nH]c2c1/C(=N/O)CC(c1ccccc1)C2 (configuration not stated)
AC50 [1]: 15.8 µM [falling, partial curve]

COc1ccc(NC(=O)Cn2c(=O)n(-c3ccc(OC)c(OC)c3)c(=O)c3ccccc32)cc1
AC50 [1]: 0.0398 µM [rising, full curve]

CCCCN(C)c1nc2c(S(=O)(=O)c3ccc(CC)cc3)nnn2c2ccc(Cl)cc12
AC50 [1]: 12.6 µM [falling, partial curve]

COc1ccccc1NC(=O)C1=C(C)Nc2c(C(=O)Nc3ccc(F)cc3)cnn2C1c1cccc([N+](=O)[O-])c1 (configuration not stated)
AC50 [1]: 12.6 µM [falling, partial curve]

CC1CCCN(C(=O)CSc2nnc(-c3c[nH]c4ccccc34)o2)C1 (configuration not stated)
AC50 [1]: 31.6 µM [falling, partial curve]

CC(=O)c1ccc(N2CCN(c3ncnc4c3c(-c3ccccc3)cn4-c3cccc(C)c3)CC2)cc1
AC50 [1]: 3.98 µM [rising, partial curve]

CCOC(=O)c1ccc(NC(=O)c2c(-c3c(F)cccc3Cl)noc2C)cc1
AC50 [1]: 15.8 µM [falling, partial curve]

CC(C)Sc1oc(-c2cccs2)nc1S(=O)(=O)c1ccc(Cl)cc1
AC50 [1]: 6.31 µM [falling, full curve]

N#Cc1c(NC(NC(=O)c2ccco2)C(=O)c2ccccc2)sc2c1CCCC2 (configuration not stated)
AC50 [1]: 6.31 µM [falling, partial curve]

Cc1ccc(CNC(=O)c2ccc(Cn3c(=O)c4ccccc4n(CC(=O)Nc4ccc(C)cc4C)c3=O)cc2)cc1
AC50 (measured here: IkB-luc green channel): 6.31 µM [rising, single point] | AC50 (measured here: control luc red channel): 15.8 µM [falling, single point]

COc1cc(NC(=O)c2cc(-c3cccs3)on2)cc(OC)c1OC
AC50 [1]: 7.94 µM [falling, partial curve]

CCOc1ccc(CCNC(=O)c2cn(CC)c3ccc(S(=O)(=O)N4CCc5ccccc5C4)cc3c2=O)cc1OCC
AC50 [1]: 3.16 µM [rising, partial curve, poor fit]

CCn1c2ccccc2c2cc(CN3CCN(Cc4ccccc4F)CC3)ccc21
AC50 [1]: 15.8 µM [falling, partial curve]

COc1ccc(-c2cc(C(F)(F)F)nc(S(=O)(=O)CCCC(=O)Nc3cccc(O)c3)n2)cc1OC
AC50 [1]: 5.01 µM [falling, full curve]

CCc1ccc(NCc2cc3cc4c(cc3n(CC(=O)Nc3ccc(C)cc3)c2=O)OCO4)cc1
AC50 [1]: 10 µM [falling, partial curve]

CC(=O)c1ccc(NC(=O)CSc2nnc3ccc(-c4ccc(Cl)cc4)nn23)cc1
AC50 [1]: 3.16 µM [rising, partial curve]

CCOc1ccc(NC(=O)C2CCCN(S(=O)(=O)c3cccc4nonc34)C2)cc1 (configuration not stated)
AC50 [1]: 2.51 µM [falling, partial curve, poor fit]

Cc1ccc(Nc2c(-c3cccs3)nc3nc(C)cc(C)n23)cc1
AC50 [1]: 15.8 µM [falling, partial curve]

Cc1oc2ncnc(N3CCCCC3)c2c1C(=O)N1CCN(c2cccc(C(F)(F)F)c2)CC1
AC50 [1]: 25.1 µM [falling, partial curve]
